In patent publication US20190083482A1, “PRMT5 INHIBITORS AND USES THEREOF” (Epizyme, Inc., priority 2017, published 2019) one finds IC50 and EC50 data, which are given here for 2 molecules.

The chains behind the UniProt entries cited, without tags or fusion partners. A line that says so, or that is headed by a name, gives the form on record, which may keep a tag or linker. Residues count along the entry.
UniProt O14744, 2-637 with tags or gaps: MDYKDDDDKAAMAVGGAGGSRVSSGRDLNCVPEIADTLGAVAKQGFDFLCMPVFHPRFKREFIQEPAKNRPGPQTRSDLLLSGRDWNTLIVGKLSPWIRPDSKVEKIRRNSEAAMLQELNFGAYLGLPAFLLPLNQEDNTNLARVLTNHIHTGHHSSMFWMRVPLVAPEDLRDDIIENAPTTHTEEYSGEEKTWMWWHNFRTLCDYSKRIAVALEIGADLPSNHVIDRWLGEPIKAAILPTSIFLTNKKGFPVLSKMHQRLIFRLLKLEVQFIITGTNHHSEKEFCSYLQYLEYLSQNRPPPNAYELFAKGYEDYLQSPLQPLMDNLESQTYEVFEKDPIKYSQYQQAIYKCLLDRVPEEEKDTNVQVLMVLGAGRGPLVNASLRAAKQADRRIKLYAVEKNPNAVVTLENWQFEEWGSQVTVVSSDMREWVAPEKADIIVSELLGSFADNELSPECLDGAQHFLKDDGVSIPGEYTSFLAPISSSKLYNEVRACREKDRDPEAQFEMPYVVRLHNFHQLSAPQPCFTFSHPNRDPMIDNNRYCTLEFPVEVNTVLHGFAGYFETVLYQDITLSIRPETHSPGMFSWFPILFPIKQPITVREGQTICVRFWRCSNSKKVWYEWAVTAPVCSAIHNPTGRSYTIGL
UniProt Q9BQA1, 2-342 with tags or gaps partner limits assumed: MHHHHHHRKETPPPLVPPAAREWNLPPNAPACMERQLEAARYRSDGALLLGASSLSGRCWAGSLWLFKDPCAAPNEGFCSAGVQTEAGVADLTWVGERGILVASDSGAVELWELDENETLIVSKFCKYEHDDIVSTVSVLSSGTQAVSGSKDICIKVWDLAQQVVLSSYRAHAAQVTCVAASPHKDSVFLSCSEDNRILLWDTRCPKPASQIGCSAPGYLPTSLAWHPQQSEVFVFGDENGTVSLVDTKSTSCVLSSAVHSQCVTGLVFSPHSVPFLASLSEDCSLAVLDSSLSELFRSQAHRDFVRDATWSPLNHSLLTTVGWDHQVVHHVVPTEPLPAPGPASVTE

Structures are written as SMILES. Structures were worked out from names or drawings and are uncertain. Bounds are passed on as bounds.

In assay [1] the target is PRMT5/MEP50 (Homo sapiens, UniProt O14744). Description: PRMT5 Biochemical Assay (PRMT5/MEP50 enzyme assay on peptide substrate, 3H-SAM Flashplate). Conditions: read-out: Biochemical IC50; PRMT5/MEP50 4 nM, 3H-SAM 75 nM, peptide 40 nM.
The test system of assay [2] is symmetric di-methyl arginine in Z-138 cells. Description: Z-138 Methylation Assay (In Cell Western for symmetric di-methyl arginine). Conditions: read-out: ICW EC50, 96 hours incubation.
The subject of assay [3] is Z-138 cell line. The experiment in a line: Z-138 Proliferation Assay (Cell Titer Glo). Conditions: read-out: Proliferation EC50; Z-138 cells, 5 days incubation, top concentration 20 μM. For orientation: In ATP-based viability assays light output follows the ATP content of the culture.

Turning to `O=C(COc1ccc2c(cnn2C2CCNCC2)c1)NCC(O)CN1CCc2ccccc2C1` (stereo not drawn), the IC50 (usually the concentration that inhibits the measured activity by half) in assay [1] is below 100 nM. Also, the EC50 in assay [2] is 101 to 1000 nM; in assay [3], above 20 µM.

On to `CN1CCC(n2ncc3cc(OCC(=O)NCC(O)CN4CCc5ccccc5C4)ccc32)CC1` (stereo not drawn), for which, in assay [1], the IC50 was below 100 nM. Besides, the EC50 in assay [2] was 101 to 1000 nM; in assay [3] it was above 20 µM.
